From article PMC3572064 come the findings set out here.

Sequences of proteins named here, by UniProt entry; tags and fusion partners are left off.
UniProt P60766: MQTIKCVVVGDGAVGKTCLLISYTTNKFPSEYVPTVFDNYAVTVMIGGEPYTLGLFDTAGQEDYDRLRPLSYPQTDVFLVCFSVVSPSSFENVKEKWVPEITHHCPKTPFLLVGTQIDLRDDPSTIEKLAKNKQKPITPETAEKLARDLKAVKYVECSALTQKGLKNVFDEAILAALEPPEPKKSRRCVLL
UniProt A2AF53: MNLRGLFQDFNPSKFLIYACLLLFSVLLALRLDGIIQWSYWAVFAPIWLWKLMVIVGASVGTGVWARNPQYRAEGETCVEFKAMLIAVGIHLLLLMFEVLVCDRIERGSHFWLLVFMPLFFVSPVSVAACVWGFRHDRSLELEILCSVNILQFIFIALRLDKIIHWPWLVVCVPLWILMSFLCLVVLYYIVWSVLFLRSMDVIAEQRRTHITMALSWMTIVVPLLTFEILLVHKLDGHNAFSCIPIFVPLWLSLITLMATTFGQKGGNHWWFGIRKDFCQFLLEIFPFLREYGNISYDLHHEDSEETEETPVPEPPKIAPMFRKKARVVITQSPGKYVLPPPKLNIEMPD
UniProt Q62048: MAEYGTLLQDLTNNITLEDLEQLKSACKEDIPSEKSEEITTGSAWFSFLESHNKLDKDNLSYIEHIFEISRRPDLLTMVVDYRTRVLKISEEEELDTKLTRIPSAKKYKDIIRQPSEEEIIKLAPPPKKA

First the molecules themselves.
B1: endogenous mouse STOML1 (protein, UniProt Q8CI66 1-399)
chain: MLGRSGYRALPLGDFDRFQQSSFGFLGSQKGCLSPEPGSVGPGADAPESWPSCLCHGLVSVLGFLLLLLTFPISGWFALKIVPTYERMIVFRLGRIRNPQGPGMVLLLPFIDSFQRVDLRTRAFNVPPCKLASKDGAVLSVGADVQFRIWDPVLSVMAVKDLNTATRMTAHNAMTKALLRRPLQEIQMEKLKIGDQLLLEINDVTRAWGLEVDRVELAVEAVLQPPQDSLTVPSLDSTLQQLALHLLGGSMNSAVGRVPSPGPDTLEMINEVEPPASLAGAGAEPSPKQPVAEGLLTALQPFLSEALVSQVGACYQFNVILPSGTQSIYFLDLTTGQGRVGHGEPDGIPDVVVEMAEADLQALLSKELRPLGAYMSGRLKVKGDLAVVMKLEAVLKALK

No constants are given. Whether binding was seen depends on the method and setting. In cells and extracts the contact can be indirect. A yes stands for co-enrichment or nearness to the bait. Other partners may have been found. A no says only that the protein was not detected with the bait.

The target of this experiment is GFP-TRPML1 (mouse), stably expressed in RAW264.7 macrophages (mouse) (UniProt Q99J21). The experiment can be described thus: affinity purification with mass spectrometry; anti-GFP beads on lysates of RAW264.7 clones stably expressing GFP-TRPML1 (Derlin-1-GFP clones as negative control); 20 mM Tris pH 7.5, 150 mM NaCl, 1% NP40, 5 mM EDTA (absence of Ca2+); MudPIT.
For the molecule “endogenous Cdc42 (from UniProt P60766 1-191)”, the binding entry was “binds”.
Take “endogenous NP9 (from UniProt A2AF53 1-350)”: the binding result was “binds”.
Take “endogenous PEA-15 (from UniProt Q62048 1-130)”: the binding result is reported as “no binding”.
Regarding B1, the binding result is “binds”.
